Assay results as given in article PMC8945107 (ACS Omega, 2022).

System: A549
Assay: MTT antiproliferative / cell viability assay, A549
Format: cell-based
Conditions: Homo sapiens, A549, 48 h, read-out: IC50 A549

IC50: 2230 ± 160 nM
SMILES: COc1cccc2c1C(=O)c1c(O)c3c(c(O)c1C2=O)C[C@@](O)(C(=O)CO)C[C@@H]3O[C@H]1C[C@H](N)[C@H](O)[C@H](C)O1 [DOX, Doxorubicin]
